Test results taken from patent US7226904B2, “Agents and methods for promoting bone growth” (priority 2000, dated 2007).
Part of at least one peptide drawing is inferred or uncertain, most often the ends. Peptide text beside a SMILES is read from it. * marks the point of attachment. αGalNAc = CC(=O)N[C@@H]1[C@@H](O)[C@@H](O)[C@@H](CO)O[C@@H]1*

Tested on: Ovariectomized Sprague-Dawley rats
Test: High-dose administration to ovariectomized Sprague-Dawley rats
Type: in vivo
Details: 100 ng/g to 30 μg/g body weight every day for 60 days, ovariectomized rats after 60 days bone loss
Experimental: Ovariectomized Sprague-Dawley rats were allowed to lose bone from 60 days. Thereafter, animals were injected with glycosylated fADBP or non-glycosylated fADBP, at concentrations ranging from 100 ng/g of body weight to 30 μg/g of body weight every day for 60 days.

CC(=O)N[C@H]1[C@@H](O[C@H](C)[C@H](NC(=O)[C@@H]2CCCN2C(=O)[C@@H](N)[C@@H](C)O)C(=O)N[C@@H](CCC(=O)O)C(=O)N[C@@H](CC(C)C)C(=O)N[C@@H](C)C(=O)N[C@@H](CCCCN)C(=O)N[C@@H](CC(C)C)C(=O)N[C@H](C(=O)N[C@@H](CC(N)=O)C(=O)N[C@@H](CCCCN)C(=O)N[C@@H](CCCNC(=N)N)C(=O)N[C@@H](CO)C(=O)N[C@@H](CCC(=O)O)C(=O)O)C(C)C)O[C@H](CO)[C@H](O)[C@@H]1O [Glycosylated fADBP] (H-TPT(αGalNAc)ELAKLVNKRSE-OH)
effect on bone formation: no significant effect
